Molecules are shown by their SMILES. The structures given here were assigned with low confidence; some may be wrong.

Amino acid sequences for entries named in this document (tags omitted).
UniProt P41146, whole entry: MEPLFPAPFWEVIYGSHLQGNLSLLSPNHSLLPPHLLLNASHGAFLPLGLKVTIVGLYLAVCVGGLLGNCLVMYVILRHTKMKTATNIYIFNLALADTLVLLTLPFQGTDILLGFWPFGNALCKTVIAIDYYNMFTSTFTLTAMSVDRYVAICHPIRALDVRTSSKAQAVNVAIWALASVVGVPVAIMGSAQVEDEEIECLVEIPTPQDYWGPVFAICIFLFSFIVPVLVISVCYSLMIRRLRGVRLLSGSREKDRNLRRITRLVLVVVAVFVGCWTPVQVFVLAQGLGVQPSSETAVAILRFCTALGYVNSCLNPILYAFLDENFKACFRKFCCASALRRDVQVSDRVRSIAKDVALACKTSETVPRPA
UniProt P35372, whole entry: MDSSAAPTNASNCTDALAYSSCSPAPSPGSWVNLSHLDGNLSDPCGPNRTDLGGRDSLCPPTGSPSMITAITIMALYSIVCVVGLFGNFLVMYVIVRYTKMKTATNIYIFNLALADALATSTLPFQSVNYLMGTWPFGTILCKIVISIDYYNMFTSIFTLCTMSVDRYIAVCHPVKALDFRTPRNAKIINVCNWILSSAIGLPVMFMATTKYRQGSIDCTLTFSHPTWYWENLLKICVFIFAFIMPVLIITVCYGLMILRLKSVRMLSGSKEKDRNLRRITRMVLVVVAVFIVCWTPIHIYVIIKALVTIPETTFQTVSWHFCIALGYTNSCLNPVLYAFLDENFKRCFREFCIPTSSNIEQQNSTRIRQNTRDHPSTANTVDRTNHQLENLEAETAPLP

These results are taken from patent US10214520B2, “Substituted azaspiro(4.5)decane derivatives” (priority 2014, dated 2019).

The target in one experiment is ORL1 receptor (Homo sapiens, UniProt P41146). In words: ORL1 receptor binding assay with 3H-nociceptin/orphanin FQ, membranes from recombinant CHO-ORL1 cells (WGA-SPA beads).
The target of another experiment is human μ opiate receptor (Homo sapiens, UniProt P35372). In words: μ opiate receptor binding assay with [3H]-naloxone, membrane preparation of CHO-K1 cells (WGA-SPA beads).

By Ki is commonly meant the equilibrium dissociation constant of an inhibitor or competing ligand from its target. Turning to `Cc1ccc(CN2CC3(CCC(c4cccs4)(N(C)C)CC3)CC2=O)s1` (single isomer, unassigned), the Ki on ORL1 receptor (read-out: Ki (ORL1) mean [μm], mean) is 1.9 nM; on human μ opiate receptor (read-out: Ki (μ) mean [μm], mean), 0.38 nM. Also, on ORL1 receptor (test concentration 1 μM), the “% inhibition (ORL1) [1 μM]” value is recorded as 93.5%. Also, the “% inhibition (μ) [1 μM]” value on human μ opiate receptor (test concentration 1 μM) is 100.5%.
